These are yes or no findings as the source states them, for the method shown. Binding seen in cells or lysates may run through a third protein. Binding calls can cover weak binding; strength is not graded here.

Sequences of proteins named here, by UniProt entry; tags and fusion partners are left off. A change or cut given only in a name is not applied to a line headed by its entry.
UniProt P42232: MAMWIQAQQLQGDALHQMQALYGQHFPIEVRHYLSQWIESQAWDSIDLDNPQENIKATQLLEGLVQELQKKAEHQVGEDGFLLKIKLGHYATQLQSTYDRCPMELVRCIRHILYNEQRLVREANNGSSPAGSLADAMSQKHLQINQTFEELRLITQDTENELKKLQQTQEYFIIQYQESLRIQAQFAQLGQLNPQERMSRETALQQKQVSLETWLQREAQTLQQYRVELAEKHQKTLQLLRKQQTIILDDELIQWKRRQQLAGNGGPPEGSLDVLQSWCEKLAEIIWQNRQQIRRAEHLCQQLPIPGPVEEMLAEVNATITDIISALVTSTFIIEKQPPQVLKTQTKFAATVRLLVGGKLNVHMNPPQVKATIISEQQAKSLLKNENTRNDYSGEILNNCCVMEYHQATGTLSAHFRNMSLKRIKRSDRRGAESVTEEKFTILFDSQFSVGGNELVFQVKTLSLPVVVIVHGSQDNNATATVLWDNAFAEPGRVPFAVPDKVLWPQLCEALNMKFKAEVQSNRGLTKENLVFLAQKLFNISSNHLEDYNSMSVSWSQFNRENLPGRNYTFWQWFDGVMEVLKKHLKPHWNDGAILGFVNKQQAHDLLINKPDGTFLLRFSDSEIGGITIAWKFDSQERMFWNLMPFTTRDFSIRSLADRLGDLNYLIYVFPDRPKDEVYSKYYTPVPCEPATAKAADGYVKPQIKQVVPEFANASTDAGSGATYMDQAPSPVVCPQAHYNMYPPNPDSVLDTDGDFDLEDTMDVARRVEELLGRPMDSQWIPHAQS
UniProt Q8C208: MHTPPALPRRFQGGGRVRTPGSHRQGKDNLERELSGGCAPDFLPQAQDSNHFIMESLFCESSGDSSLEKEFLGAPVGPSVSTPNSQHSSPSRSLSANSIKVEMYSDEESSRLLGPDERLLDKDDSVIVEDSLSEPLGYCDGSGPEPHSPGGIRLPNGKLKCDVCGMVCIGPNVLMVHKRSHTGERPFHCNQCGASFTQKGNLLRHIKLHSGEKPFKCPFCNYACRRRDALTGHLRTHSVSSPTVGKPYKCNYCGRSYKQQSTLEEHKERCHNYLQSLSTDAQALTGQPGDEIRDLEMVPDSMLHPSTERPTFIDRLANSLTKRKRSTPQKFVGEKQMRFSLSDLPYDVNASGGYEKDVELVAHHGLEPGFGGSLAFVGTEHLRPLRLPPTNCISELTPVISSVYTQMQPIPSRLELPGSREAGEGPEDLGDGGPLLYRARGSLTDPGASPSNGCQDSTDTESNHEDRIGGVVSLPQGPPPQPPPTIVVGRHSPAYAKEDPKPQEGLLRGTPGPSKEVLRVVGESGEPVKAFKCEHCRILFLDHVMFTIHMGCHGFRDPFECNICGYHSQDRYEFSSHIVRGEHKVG
UniProt Q03267: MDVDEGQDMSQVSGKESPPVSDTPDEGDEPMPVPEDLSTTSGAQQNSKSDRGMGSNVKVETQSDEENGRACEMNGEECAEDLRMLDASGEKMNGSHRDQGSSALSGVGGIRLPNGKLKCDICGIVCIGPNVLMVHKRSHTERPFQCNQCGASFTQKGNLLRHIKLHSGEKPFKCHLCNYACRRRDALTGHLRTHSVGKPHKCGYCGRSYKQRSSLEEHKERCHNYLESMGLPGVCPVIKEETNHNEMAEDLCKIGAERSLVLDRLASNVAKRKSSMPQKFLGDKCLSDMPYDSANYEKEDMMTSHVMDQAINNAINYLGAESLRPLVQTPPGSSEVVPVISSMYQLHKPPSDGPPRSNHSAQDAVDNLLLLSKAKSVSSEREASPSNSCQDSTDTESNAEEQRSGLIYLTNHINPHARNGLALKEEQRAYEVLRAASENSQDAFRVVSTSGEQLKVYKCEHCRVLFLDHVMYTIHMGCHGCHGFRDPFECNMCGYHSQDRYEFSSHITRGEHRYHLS
UniProt O08900: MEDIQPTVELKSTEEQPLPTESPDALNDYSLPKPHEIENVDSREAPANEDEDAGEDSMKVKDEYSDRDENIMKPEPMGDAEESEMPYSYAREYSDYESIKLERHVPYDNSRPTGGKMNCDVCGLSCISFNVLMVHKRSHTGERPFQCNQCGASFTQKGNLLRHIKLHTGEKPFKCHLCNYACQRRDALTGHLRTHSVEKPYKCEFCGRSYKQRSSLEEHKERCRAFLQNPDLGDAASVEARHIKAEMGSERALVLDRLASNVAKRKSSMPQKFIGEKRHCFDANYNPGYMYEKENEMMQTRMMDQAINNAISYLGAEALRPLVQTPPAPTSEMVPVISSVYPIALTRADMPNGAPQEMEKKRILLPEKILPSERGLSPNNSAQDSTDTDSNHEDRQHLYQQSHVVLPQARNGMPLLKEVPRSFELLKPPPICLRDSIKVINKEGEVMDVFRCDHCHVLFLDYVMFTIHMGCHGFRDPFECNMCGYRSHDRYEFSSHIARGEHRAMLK

Experimental findings from paper doi:10.1101/2022.11.02.514868 are described below.

The test concerns the target Constitutively active STAT5B (STAT5B^CA), tagless (UniProt P42232). The test can be described thus: co-IP.
With “V5-tagged wild-type Eos (Eos^WT) (from UniProt Q8C208 1-586)”, the binding result was “binds”. The same measure for “Ikaros (Ikzf1), overexpressed, V5-tagged (from UniProt Q03267 1-517)”: “no binding”; for “Aiolos (Ikzf3), overexpressed, V5-tagged (from UniProt O08900 1-507)”: “no binding”.
